Test results: patent US9994528B2, “Certain amino-pyridines and amino-triazines, compositions thereof, and methods for their use” (Cytokinetics, Inc., priority 2010, dated 2018)
At least one compound was matched to its structure with a doubt left.

system: rabbit skeletal myofibrils (approximately 90% fast fibers); assay: Activation of fast skeletal myofibrils (PUMA coupled-enzyme ATPase assay); type: biochemical; conditions: AC1.4 = concentration at which the compound increased the enzymatic activity by 40%; myofibril suspension at calcium level pCa25; PM12 buffer pH 6.8
Experimental: Preparation of fast skeletal myofibrils. Rabbit skeletal myofibrils were prepared based upon the method of Herrmann et al. (Biochem. 32(28):7255-7263(1993). Myofibrils were prepared from rabbit psoas muscle purchased from Pel-Freez Biologicals (Arkansas) within 2 days of ordering, stored on ice. Minced muscle was homogenized in 10 volumes of ice-cold “standard” buffer (50 mM Tris, pH 7.4, 0.1 M potassium acetate, 5 mM KCl, 2 mM DTT, 0.2 mM PMSF, 10 μM leupeptin, 5 μM pepstatin, and 0.5 mM sodium azide) containing 5 mM EDTA and 0.5% Triton X-100 using an Omni-Macro homogenizer. Myofibrils were recovered by low speed centrifugation (3000 rpm for 10 minutes) and washed 2 times in the Triton X-100 containing buffer to ensure removal of cellular membrane. Following the Triton washes, myofibrils were washed 3 times in “standard” buffer containing 2 mM magnesium acetate. A final wash in assay buffer (12 mM PIPES, pH 6.8, 60 mM KCl, 1 mM DTT) was performed and brought to 10% sucrose for flash freezing in liquid nitrogen and storage at −80° C.
Activation of Fast Skeletal Myofibrils. Fast fiber activators were identified by measuring the enzymatic activity of muscle myofibril preparations using the proprietary PUMA™ (see, e.g., U.S. Pat. Nos. 6,410,254, 6,743,599, 7,202,051, and 7,378,254) assay system. Myofibril preparations consisted of rabbit skeletal muscle (approximately 90% fast fibers) that had been mechanically homogenized and washed with a detergent (triton X-100) to remove cellular membranes. This preparation retained all of the sarcomeric components in a native conformation and the enzymatic activity was still regulated by calcium. Compounds were tested using a myofibril suspension and a level of calcium sufficient to increase enzymatic activity of the myofibrils to 25% of their maximal rate (termed pCa25). Enzymatic activity was tracked via a pyruvate kinase and lactate dehydrogenase-coupled enzyme system. This assay regenerates myosin-produced ADP into ATP by oxidizing NADH, producing an absorbance change at 340 nm. The buffering system was 12 mM Pipes, 2 mM MgCl2, 1 mM DTT at pH 6.8 (PM12 buffer).
Using procedures similar to those described herein, utilizing reagents and intermediates commercially available (e.g., Sigma-Aldrich,) or readily synthesized by one of skill in the art, the compounds in Table 2 were synthesized, characterized and tested. AC1.4 values were determined according to the procedure described in Example 25, and the reported median AC1.4 values are as follows: A=<1 uM; B=1-10 uM; C=10-20 uM; D=>20 uM.

Compound	Mean AC1.4
CC(C)(C)OC(=O)CNc1ccc(Br)cn1 [tert-butyl 2-[(5-bromo-2-pyridyl)amino]acetate]	D (D=>20 uM)
Fc1cccnc1C1(CNc2ncc(-c3ccc(Br)cc3)nn2)CCC1 [[6-(4-bromophenyl)(1,2,4-triazin-3-yl)]{[(3-fluoro(2-pyridyl))cyclobutyl]methyl}amine]	C (C=10-20 uM)
Fc1ccc(Br)cc1-c1cnc(NC2(c3cccc(OC(F)F)n3)CCC2)nn1 [{[6-(difluoromethoxy)(2-pyridyl)]cyclobutyl}[6-(5-bromo-2-fluorophenyl)(1,2,4-triazin-3-yl)]amine]	B (B=1-10 uM)
NC(=O)c1ccc(F)c(-c2cnc(NC[C@]3(c4ncccc4F)C[C@H](F)C3)nn2)c1O [4-fluoro3-[3-({[3-fluoro-1-(3-fluoro(2-pyridyl))cyclobutyl]methyl}amino)(1,2,4-triazin-6-yl)]-2-hydroxybenzamide]	A (A=<1 uM)
Nc1ccc(-c2cnc(NCC3(c4ncccc4F)CCC3)nn2)cc1 [[6-(4-aminophenyl)(1,2,4-triazin-3-yl)]{[(3-fluoro(2-pyridyl))cyclobutyl]methyl}amine]	B (B=1-10 uM)
